Laboratory results as given in article PMC2702365.
Results are given in words; binding and its absence hold for the method and conditions named. Some results given as binding are weak or reduced against the parent protein; the word gives no strength.

Sequences of proteins named here, by UniProt entry; tags and fusion partners are left off. Residues count along the entry.
UniProt Q04206: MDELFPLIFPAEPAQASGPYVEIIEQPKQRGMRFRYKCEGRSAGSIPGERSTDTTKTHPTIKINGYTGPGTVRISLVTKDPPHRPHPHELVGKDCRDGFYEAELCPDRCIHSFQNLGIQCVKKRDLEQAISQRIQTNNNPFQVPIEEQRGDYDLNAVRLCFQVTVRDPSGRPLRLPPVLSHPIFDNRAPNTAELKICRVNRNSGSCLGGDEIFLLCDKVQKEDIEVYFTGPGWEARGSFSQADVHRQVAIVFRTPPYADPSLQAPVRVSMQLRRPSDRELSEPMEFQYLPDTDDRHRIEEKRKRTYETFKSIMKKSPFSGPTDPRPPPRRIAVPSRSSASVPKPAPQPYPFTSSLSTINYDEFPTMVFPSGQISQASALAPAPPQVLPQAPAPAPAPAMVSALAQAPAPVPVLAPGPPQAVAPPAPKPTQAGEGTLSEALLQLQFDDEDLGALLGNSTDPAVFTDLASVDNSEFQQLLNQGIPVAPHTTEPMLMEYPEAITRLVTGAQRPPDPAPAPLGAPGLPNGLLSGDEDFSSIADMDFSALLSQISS
UniProt P19838, residues 1-433: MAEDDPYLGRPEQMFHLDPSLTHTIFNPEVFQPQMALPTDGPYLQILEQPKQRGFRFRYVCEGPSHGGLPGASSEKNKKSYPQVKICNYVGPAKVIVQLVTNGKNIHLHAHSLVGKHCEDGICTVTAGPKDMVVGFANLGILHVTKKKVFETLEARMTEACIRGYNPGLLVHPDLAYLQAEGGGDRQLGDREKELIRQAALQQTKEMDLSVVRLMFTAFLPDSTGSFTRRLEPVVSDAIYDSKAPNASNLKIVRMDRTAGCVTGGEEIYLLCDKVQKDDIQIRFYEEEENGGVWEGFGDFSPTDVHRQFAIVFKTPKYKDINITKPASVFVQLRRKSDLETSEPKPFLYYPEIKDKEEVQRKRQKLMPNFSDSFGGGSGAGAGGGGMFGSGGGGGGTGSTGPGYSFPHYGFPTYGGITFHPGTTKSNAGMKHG

Target: NF-κB RelA/p65 subunit (human (endogenous in OE21)) (UniProt Q04206)
Experiment: native gel or EMSA; supershift with antibodies against p50 or p65 on nuclear extracts of OE21 cells treated for 1 h with 1 × 10^5 C. albicans/ml; γ32P-labelled oligonucleotide with a consensus NF-κB site, 30 min at room temperature, gel at 100 V and 4°C

With “NF-κB p50 subunit (from UniProt P19838 1-433)” the binding was “binds”.
